# Results published in PubChem BioAssay AID540276 (National Center for Advancing Translational Sciences (NCATS), 2011).
# About 5,400 (1.8%) of roughly 300,000 compounds were called active. Inconclusive means that the source gave no clear call. Such entries were picked first, then a sample of the others. The call rests on the fitted dose curve; tested in HEK293 cells. Where the call is inconclusive, the potency comes from a doubtful curve fit.
# Assay: qHTS for inhibitors of binding or entry into cells for Marburg Virus
# Settings: Marburg virus pseudotyped entry inhibition, cell reporter; series mostly up to 37.8 µM
# Potency means the concentration at half of the fitted maximal effect.
row,Compound,Potency
1,Cc1cccc2cc(CN(Cc3ccccc3)C(=S)NCCCN(C)C)c(=O)[nH]c12,active: 3.98 µM
2,CN1C2=NCCN2C(=O)c2cc(Cl)ccc21,inactive
3,Cc1ccc(NC(=O)C(=O)NN=C2CCCC2)cc1C,"inconclusive: 3.55 µM [activator, partial curve, poor fit]"
4,COCCN(C(=O)CCC(=O)Nc1nccs1)C(C(=O)NCCC(C)C)c1ccc(F)cc1 (stereo not drawn),"inconclusive: 3.98 µM [inhibitor, partial curve, poor fit]"
5,O=C(Cn1cnc2c(NCc3ccccc3)ncnc21)N1CCN(c2ccccn2)CC1,inactive
6,Cc1ccccc1OCC(=O)Nc1ccc(Cc2ccncc2)cc1,"inconclusive: 20.6 µM [inhibitor, partial curve, poor fit]"
7,CC1CCN(C2=NC(=O)/C(=C/c3cn[nH]c3-c3ccccc3)S2)CC1,"inconclusive: 5.62 µM [activator, single point]"
8,Nc1cc(=O)[nH]c(SCCSc2ccccc2F)n1,"inconclusive: 35.5 µM [activator, single point]"
9,CCc1ccc(NC(=O)C2(C)Cc3ccccc3C(=O)O2)cc1 (stereo not drawn),"inconclusive: 35.5 µM [activator, single point]"
10,Cc1cccn2c(=O)c(/C=C(\C#N)c3nc4ccccc4n3C)c(Oc3ccc(Cl)cc3)nc12,"inconclusive: 0.708 µM [inhibitor, full curve, poor fit]"
11,CC(C)CCN1CCN(Cc2nc(-c3ccc(F)cc3)cs2)CC1CCO (stereo not drawn),inactive
12,O=C(CCC(=O)Nc1ccc(Cl)cc1Cl)NNC(=O)[C@@H]1CCCC[C@@H]1C(=O)O,"inconclusive: 0.891 µM [activator, single point]"
13,O=C1CC2(CCCCC2)CC(=O)N1CCc1ccccc1,inactive
14,CCOc1ccc(N2CC(C(=O)Nc3cccc(S(=O)(=O)N4CCCCC4)c3)CC2=O)cc1 (stereo not drawn),"inconclusive: 5.62 µM [inhibitor, full curve]"
15,O=C(Nc1cccc(C(F)(F)F)c1)N1CCN(C(=O)Nc2cccc(C(F)(F)F)c2)CC1,inactive
16,O=C(NCc1ccccn1)c1ccc(OC2CCN(Cc3ccccc3)CC2)cc1,inactive
17,CCC(C)NC(=O)CNC(=S)N(Cc1ccccc1F)C1CCCCC1 (stereo not drawn),"inconclusive: 3.55 µM [inhibitor, single point]"
18,CC(C)NC(=O)c1noc2cc([N+](=O)[O-])ccc12,inactive
19,O=C(/C=C/Nc1ccccc1C(F)(F)F)c1ccco1,"inconclusive: 3.16 µM [inhibitor, single point]"
20,Cc1ccc(C)c(NC(=O)C(Sc2nc3ccc(C)cc3[nH]2)c2ccccc2)c1 (stereo not drawn),active: 8.91 µM
21,Cc1nc2ccccc2c(C)c1CC(=O)N(C)CC(=O)Nc1cccc(F)c1,inactive
22,CC(=O)Nc1nonc1-c1nnc(SCc2ccc(C)cc2)n1C,"inconclusive: 5.01 µM [activator, full curve, poor fit]"

row,Compound,Potency
1,Brc1ccc(Oc2nnnn2-c2ccccc2)cc1,inactive
2,O=C(COC(=O)CSc1ccc([N+](=O)[O-])cc1)NCCc1ccccc1,"inconclusive: 0.316 µM [inhibitor, partial curve, poor fit]"
3,CCOc1ccc(C(=O)Nc2cc(C)ccn2)cc1,"inconclusive: 1.12 µM [inhibitor, full curve, poor fit]"
4,O=C(c1cnn2c(C(F)(F)F)cc(-c3ccc4c(c3)OCO4)nc12)N1CCCC1,"inconclusive: 0.651 µM [inhibitor, single point]"
5,CC(C)OCCCNc1ncc2c(n1)CC(c1cccs1)CC2=O (stereo not drawn),inactive
6,Cc1ccc(C)c(S(=O)(=O)N2CC(=O)N(CCc3ccccc3)C(=O)C2)c1,"inconclusive: 0.355 µM [inhibitor, partial curve, poor fit]"
7,O=C(CC1C(=O)N(c2ccccc2)C(=O)N1CCc1cccs1)Nc1ccc(Cl)cc1 (stereo not drawn),"inconclusive: 10 µM [inhibitor, single point]"
8,CC(=O)Nc1cccc(C(=O)N/N=C/c2c[nH]c3ccccc23)c1,"inconclusive: 3.16 µM [activator, single point]"
9,CC(CN(C)Cc1ccccc1)OC(=O)c1cccc(F)c1 (stereo not drawn),"inconclusive: 1.26 µM [inhibitor, single point]"
10,CCOc1cc(/C=C2\COc3ccccc3C2=O)ccc1OCC(=O)N(C)C,"inconclusive: 10 µM [inhibitor, partial curve, poor fit]"
11,Cc1ccc(NC(=O)CCNC(=O)c2ccccc2)cc1F,inactive
12,COC(=O)c1cccc(NC(=O)Nc2ccc(Cl)cc2)c1,"inconclusive: 0.562 µM [inhibitor, full curve, poor fit]"
13,O=S(=O)(NCc1ccc2c(c1)OCO2)c1ccc(F)c(F)c1,"inconclusive: 3.55 µM [activator, single point]"
14,CCCN1CCN(C(=S)Nc2ccc(SC(F)F)cc2)CC1,"inconclusive: 4.47 µM [activator, single point]"
15,CCCN1C(=O)C2(c3ccccc31)c1c(oc3cc(C)c(C)cc3c1=O)C(=O)N2CCCOC (stereo not drawn),"inconclusive: 4.47 µM [inhibitor, full curve, poor fit]"
16,Nc1cc(=O)[nH]c(SCC(=O)N2N=C(c3ccc4ccccc4c3)CC2c2ccccc2)n1 (stereo not drawn),"inconclusive: 4.61 µM [inhibitor, partial curve, poor fit]"
17,CC1=C(C(=O)OCc2ccccc2)C(c2ccc(C)o2)C2=C(CCCC2=O)N1 (stereo not drawn),"inconclusive: 11.2 µM [inhibitor, partial curve, poor fit]"
18,CC(C)c1ccc(NC(=O)COc2ccccn2)cc1,"inconclusive: 8.91 µM [activator, partial curve, poor fit]"
19,CC1(C)CC(=O)C(C=NCC2CCN(C(=S)Nc3cccc(Cl)c3)CC2)=C(O)C1,"inconclusive: 11.2 µM [activator, single point]"
20,Cc1ccccc1N1CCN(C2CCCN(C(=O)COc3ccccc3)C2)CC1 (stereo not drawn),"inconclusive: 0.282 µM [inhibitor, partial curve, poor fit]"
21,O=S(=O)(c1ccccc1)N(CC1CO1)c1cc(Cl)ccc1Cl (stereo not drawn),"inconclusive: 28.2 µM [inhibitor, partial curve, poor fit]"

# An excerpt from above in order of molar mass, rising:
row,Compound,Potency
18,CC(C)c1ccc(NC(=O)COc2ccccn2)cc1,"inconclusive: 8.91 µM [activator, partial curve, poor fit]"
6,Cc1ccccc1OCC(=O)Nc1ccc(Cc2ccncc2)cc1,"inconclusive: 20.6 µM [inhibitor, partial curve, poor fit]"
21,O=S(=O)(c1ccccc1)N(CC1CO1)c1cc(Cl)ccc1Cl (stereo not drawn),"inconclusive: 28.2 µM [inhibitor, partial curve, poor fit]"
17,CC1=C(C(=O)OCc2ccccc2)C(c2ccc(C)o2)C2=C(CCCC2=O)N1 (stereo not drawn),"inconclusive: 11.2 µM [inhibitor, partial curve, poor fit]"
17,CCC(C)NC(=O)CNC(=S)N(Cc1ccccc1F)C1CCCCC1 (stereo not drawn),"inconclusive: 3.55 µM [inhibitor, single point]"
6,Cc1ccc(C)c(S(=O)(=O)N2CC(=O)N(CCc3ccccc3)C(=O)C2)c1,"inconclusive: 0.355 µM [inhibitor, partial curve, poor fit]"
10,Cc1cccn2c(=O)c(/C=C(\C#N)c3nc4ccccc4n3C)c(Oc3ccc(Cl)cc3)nc12,"inconclusive: 0.708 µM [inhibitor, full curve, poor fit]"
4,COCCN(C(=O)CCC(=O)Nc1nccs1)C(C(=O)NCCC(C)C)c1ccc(F)cc1 (stereo not drawn),"inconclusive: 3.98 µM [inhibitor, partial curve, poor fit]"
